# Measured values as given in publication PMC8143797.
# Sequences of proteins named here, by UniProt entry; tags and fusion partners are left off.
# UniProt Q9GZV5: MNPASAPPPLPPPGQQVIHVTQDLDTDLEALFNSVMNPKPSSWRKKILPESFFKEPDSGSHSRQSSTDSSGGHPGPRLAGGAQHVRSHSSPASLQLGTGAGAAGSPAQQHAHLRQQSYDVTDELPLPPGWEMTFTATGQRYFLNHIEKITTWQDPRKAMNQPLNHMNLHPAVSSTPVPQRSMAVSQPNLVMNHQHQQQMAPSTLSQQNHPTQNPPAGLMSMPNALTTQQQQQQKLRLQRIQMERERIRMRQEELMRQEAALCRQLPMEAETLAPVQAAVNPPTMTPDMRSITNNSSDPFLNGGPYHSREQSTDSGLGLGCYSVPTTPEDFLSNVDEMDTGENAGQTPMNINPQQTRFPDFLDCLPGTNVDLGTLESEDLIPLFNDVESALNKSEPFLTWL
# UniProt Q8NI35: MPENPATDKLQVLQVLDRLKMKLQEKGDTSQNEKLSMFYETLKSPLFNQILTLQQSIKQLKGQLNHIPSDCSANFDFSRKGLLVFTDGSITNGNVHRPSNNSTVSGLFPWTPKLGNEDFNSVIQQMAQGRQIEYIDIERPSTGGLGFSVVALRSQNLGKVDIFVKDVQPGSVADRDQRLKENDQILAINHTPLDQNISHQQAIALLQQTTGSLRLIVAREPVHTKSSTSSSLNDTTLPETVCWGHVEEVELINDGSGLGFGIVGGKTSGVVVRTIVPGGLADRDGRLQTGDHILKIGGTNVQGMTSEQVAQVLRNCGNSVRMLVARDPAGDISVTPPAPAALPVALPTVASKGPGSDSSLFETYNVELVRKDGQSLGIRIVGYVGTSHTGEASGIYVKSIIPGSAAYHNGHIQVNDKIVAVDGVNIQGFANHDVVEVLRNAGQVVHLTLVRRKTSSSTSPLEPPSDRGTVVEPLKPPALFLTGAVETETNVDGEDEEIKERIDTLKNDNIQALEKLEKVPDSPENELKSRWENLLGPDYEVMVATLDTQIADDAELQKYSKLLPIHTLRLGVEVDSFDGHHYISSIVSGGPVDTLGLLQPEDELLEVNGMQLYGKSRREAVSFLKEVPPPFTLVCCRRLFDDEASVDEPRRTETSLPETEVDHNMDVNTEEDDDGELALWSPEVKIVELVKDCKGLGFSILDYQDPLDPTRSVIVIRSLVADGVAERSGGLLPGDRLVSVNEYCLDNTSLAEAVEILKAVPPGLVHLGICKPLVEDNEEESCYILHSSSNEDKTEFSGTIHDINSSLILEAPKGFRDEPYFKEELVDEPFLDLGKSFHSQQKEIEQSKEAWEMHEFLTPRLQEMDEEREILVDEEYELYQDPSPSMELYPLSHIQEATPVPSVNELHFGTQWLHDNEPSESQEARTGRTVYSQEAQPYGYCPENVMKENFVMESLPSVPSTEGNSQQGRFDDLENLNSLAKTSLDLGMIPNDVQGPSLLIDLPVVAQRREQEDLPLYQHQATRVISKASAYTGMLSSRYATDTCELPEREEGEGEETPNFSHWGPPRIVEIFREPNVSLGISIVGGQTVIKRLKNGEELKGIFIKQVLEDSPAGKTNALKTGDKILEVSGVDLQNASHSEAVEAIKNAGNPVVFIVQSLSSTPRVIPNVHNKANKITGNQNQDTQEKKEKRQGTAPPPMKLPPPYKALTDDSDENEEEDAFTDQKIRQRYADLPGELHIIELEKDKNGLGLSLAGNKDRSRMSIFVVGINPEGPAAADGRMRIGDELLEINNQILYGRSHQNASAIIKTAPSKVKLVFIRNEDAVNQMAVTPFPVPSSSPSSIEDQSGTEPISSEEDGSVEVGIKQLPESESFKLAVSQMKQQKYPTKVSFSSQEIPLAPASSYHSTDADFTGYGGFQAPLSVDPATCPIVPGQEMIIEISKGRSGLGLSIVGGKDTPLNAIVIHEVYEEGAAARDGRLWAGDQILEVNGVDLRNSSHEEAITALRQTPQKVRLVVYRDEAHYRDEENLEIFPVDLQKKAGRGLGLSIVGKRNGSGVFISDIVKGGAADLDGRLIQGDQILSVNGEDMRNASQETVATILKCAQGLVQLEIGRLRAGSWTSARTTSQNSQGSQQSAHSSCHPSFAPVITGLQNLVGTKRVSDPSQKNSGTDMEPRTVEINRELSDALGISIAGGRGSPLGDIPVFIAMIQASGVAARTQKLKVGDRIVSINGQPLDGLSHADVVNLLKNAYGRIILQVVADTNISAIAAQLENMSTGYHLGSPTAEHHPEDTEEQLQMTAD
# Results are given in words; binding and its absence hold for the method and conditions named. In cells and extracts the contact can be indirect. These calls come from enrichment with a bait or labelling near it, and not all partners need be listed.
# Molecular target: BirA*-TAZ (human) (UniProt Q9GZV5)
# Experiment: proximity labelling; BioID: baits fused at the N terminus to BirA* (R118G), stably expressed in Flp-In T-REx HEK293 cells, 1 µg/mL tetracycline and 50 µM biotin for 24 hr; biotinylated proteins purified, tandem mass spectrometry, SAINT analysis
substance,measurement,value
PATJ (from UniProt Q8NI35 1-1801),binding,binds
